According to publication PMC5891081:
These are yes or no findings as the source states them, for the method shown. For part of these data: In cells and extracts the contact can be indirect. Some entries that bind do so weakly or less than the wild type. For part of these data: Sequences can lack the tags named with a protein. Blank lines part the entries; values can stand above or below the binder they belong to.

The chains behind the UniProt entries cited, without tags or fusion partners.
UniProt Q92793: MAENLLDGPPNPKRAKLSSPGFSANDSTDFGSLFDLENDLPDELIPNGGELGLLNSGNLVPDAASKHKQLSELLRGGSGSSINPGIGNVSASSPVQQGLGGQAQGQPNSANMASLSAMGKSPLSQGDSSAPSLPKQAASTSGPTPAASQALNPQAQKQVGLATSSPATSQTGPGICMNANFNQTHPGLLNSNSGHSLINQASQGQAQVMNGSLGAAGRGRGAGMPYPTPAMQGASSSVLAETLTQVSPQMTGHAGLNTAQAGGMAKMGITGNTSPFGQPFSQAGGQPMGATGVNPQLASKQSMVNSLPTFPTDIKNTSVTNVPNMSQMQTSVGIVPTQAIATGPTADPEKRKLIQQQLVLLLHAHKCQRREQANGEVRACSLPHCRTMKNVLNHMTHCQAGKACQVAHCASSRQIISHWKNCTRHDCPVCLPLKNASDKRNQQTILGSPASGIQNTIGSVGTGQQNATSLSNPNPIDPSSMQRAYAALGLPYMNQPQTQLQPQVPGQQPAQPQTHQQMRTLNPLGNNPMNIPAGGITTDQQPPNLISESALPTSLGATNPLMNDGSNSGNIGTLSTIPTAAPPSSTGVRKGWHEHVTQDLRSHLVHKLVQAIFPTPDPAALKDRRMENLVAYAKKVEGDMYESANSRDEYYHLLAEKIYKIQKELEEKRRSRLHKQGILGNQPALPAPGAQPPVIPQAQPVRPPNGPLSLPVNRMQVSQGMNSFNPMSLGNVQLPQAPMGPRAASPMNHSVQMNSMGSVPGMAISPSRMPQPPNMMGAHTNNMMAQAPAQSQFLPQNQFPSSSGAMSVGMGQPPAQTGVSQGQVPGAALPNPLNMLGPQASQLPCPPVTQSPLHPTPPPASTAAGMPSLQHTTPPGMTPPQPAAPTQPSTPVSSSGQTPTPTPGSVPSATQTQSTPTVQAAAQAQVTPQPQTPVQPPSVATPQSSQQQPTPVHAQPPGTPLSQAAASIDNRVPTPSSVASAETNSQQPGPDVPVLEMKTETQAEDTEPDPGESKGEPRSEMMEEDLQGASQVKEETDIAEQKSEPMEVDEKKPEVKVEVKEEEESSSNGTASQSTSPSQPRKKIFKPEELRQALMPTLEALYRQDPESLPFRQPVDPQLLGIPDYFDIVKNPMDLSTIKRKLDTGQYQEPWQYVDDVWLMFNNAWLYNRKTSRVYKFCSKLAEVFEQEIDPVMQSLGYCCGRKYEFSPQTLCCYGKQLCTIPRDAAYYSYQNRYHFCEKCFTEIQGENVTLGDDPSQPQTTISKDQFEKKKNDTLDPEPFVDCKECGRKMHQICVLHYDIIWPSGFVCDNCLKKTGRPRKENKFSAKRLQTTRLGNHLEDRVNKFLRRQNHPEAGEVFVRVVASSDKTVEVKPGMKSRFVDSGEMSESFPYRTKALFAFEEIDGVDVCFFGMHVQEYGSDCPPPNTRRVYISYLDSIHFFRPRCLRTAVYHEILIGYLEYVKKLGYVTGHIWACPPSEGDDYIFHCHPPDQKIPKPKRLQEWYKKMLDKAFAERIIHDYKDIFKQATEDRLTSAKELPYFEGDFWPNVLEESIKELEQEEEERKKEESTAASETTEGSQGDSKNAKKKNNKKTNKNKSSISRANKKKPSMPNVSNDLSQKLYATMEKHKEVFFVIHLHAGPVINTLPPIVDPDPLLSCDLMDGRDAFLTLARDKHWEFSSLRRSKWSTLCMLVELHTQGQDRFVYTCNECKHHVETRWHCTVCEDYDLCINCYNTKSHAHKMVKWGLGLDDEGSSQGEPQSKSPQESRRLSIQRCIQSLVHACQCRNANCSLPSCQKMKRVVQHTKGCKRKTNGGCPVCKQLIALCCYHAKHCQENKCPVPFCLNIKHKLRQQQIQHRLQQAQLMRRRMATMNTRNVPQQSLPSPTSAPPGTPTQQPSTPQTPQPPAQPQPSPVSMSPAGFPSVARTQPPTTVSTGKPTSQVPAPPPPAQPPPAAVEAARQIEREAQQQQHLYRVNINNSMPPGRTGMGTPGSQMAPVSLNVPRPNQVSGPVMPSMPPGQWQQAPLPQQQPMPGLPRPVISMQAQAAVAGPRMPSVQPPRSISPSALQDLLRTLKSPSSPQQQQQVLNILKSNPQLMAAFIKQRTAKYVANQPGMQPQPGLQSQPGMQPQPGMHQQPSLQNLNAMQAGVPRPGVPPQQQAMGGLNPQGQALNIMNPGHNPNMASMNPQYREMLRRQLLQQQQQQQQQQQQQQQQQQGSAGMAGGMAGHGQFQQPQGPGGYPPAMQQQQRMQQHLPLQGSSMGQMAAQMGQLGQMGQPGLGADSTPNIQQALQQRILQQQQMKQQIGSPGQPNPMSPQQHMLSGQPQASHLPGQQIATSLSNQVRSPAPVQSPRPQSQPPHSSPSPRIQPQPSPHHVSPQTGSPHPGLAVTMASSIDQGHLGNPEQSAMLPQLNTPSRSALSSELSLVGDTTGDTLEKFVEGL
UniProt Q09472: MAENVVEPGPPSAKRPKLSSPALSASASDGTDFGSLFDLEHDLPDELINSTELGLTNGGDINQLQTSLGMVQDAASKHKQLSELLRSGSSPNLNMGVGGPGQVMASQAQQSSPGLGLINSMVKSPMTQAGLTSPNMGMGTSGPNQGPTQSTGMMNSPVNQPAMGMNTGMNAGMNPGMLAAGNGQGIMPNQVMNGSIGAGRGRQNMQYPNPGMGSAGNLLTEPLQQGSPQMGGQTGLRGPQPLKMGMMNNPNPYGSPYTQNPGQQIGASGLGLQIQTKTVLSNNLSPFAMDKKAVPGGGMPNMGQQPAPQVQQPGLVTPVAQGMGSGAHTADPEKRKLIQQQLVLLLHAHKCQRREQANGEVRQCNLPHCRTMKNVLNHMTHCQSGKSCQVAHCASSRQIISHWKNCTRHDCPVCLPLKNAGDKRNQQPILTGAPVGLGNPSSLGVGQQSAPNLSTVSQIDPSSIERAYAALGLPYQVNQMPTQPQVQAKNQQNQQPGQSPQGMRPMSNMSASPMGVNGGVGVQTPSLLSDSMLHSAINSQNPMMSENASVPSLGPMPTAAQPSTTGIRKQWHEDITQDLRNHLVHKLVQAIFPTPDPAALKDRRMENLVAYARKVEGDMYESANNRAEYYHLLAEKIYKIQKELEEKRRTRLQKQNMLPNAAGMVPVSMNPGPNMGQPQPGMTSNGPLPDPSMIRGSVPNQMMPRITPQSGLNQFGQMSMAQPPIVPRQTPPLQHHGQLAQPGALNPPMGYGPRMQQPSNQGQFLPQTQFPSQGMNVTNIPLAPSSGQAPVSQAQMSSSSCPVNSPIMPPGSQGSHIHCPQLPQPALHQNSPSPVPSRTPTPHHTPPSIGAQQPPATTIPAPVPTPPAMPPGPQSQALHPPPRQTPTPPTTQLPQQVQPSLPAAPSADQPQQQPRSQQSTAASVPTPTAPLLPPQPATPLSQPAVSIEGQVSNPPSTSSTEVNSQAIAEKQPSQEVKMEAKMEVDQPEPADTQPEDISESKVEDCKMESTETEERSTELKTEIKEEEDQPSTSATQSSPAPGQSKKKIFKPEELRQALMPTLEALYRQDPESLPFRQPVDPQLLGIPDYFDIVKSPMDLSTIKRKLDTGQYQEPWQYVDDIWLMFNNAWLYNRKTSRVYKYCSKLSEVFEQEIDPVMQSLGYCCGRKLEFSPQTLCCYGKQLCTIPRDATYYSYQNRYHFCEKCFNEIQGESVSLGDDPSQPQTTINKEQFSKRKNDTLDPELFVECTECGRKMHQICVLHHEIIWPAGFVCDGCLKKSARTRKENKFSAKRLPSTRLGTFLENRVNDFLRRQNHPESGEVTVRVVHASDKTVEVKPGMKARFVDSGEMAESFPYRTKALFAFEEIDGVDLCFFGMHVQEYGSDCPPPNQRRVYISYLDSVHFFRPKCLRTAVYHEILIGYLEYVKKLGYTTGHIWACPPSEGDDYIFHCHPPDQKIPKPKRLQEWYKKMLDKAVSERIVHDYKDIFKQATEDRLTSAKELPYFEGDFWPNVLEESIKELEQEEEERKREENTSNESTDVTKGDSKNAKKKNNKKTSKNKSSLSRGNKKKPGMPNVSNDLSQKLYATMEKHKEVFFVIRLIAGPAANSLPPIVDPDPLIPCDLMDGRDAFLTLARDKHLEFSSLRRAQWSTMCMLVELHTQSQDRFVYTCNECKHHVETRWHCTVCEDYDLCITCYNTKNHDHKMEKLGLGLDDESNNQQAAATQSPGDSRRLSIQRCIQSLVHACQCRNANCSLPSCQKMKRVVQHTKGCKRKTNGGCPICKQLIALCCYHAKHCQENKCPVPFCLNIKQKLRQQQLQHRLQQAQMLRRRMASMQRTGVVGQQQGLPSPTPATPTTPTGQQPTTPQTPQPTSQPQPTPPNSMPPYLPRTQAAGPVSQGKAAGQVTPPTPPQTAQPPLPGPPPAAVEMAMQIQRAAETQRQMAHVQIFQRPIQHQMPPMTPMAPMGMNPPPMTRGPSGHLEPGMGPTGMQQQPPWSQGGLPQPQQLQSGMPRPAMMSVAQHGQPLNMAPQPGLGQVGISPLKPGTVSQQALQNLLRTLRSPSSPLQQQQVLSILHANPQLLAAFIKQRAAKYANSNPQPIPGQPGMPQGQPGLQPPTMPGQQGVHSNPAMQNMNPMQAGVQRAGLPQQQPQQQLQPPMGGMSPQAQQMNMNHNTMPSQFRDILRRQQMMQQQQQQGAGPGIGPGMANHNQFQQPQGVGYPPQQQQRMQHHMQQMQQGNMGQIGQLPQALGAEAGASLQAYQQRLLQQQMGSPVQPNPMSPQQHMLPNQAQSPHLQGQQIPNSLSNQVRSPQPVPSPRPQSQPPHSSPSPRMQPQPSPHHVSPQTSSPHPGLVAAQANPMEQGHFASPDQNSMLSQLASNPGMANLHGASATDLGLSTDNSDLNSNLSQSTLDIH

How the values were obtained:
CBP-FLAG = CBP-FLAG (UniProt Q92793); test: pull-down; RAD52 or GST protein incubated with or without CBP-FLAG or FLAG-p300 in buffer P; immunoprecipitated proteins detected by anti-RAD52 + anti-GST and anti-FLAG immunoblot; both purified
FLAG-p300 = FLAG-p300 (UniProt Q09472); test: as above
[1] = target: p300 (exogenously overexpressed in HEK293 cells) (UniProt Q09472); test: cross-linking + co-IP; DSP-mediated in vivo cross-linking in HEK293 cells overexpressing p300 or CBP and expressing RAD52-HA or GST-HA, with or without doxorubicin; immunoprecipitation with anti-p300 or anti-CBP antibodies

- binding (CBP-FLAG): binds
- binding (FLAG-p300): binds
B1: human RAD52 (recombinant protein) (protein, UniProt P43351 1-418)
chain: MSGTEEAILGGRDSHPAAGGGSVLCFGQCQYTAEEYQAIQKALRQRLGPEYISSRMAGGGQKVCYIEGHRVINLANEMFGYNGWAHSITQQNVDFVDLNNGKFYVGVCAFVRVQLKDGSYHEDVGYGVSEGLKSKALSLEKARKEAVTDGLKRALRSFGNALGNCILDKDYLRSLNKLPRQLPLEVDLTKAKRQDLEPSVEEARYNSCRPNMALGHPQLQQVTSPSRPSHAVIPADQDCSSRSLSSSAVESEATHQRKLRQKQLQQQFRERMEKQQVRVSTPSAEKSEAAPPAPPVTHSTPVTVSEPLLEKDFLAGVTQELIKTLEDNSEKWAVTPDAGDGVVKPSSRADPAQTSDTLALNNQMVTQNRTPHSVCHQKPQAKSGSWDLQTYSADQRTTGNWESHRKSQDMKKRKYDPS

- binding [1]: binds
B2: RAD52-HA (protein, UniProt P43351 1-418)
chain: B1 chain
